This note sets out measurements from US20220033481A1 (NANJING LEGEND BIOTECH, published 2022).

Chains of the proteins cited; added tags and fusions are not shown. Residues count along the entry.
UniProt P02787, residues 20-698: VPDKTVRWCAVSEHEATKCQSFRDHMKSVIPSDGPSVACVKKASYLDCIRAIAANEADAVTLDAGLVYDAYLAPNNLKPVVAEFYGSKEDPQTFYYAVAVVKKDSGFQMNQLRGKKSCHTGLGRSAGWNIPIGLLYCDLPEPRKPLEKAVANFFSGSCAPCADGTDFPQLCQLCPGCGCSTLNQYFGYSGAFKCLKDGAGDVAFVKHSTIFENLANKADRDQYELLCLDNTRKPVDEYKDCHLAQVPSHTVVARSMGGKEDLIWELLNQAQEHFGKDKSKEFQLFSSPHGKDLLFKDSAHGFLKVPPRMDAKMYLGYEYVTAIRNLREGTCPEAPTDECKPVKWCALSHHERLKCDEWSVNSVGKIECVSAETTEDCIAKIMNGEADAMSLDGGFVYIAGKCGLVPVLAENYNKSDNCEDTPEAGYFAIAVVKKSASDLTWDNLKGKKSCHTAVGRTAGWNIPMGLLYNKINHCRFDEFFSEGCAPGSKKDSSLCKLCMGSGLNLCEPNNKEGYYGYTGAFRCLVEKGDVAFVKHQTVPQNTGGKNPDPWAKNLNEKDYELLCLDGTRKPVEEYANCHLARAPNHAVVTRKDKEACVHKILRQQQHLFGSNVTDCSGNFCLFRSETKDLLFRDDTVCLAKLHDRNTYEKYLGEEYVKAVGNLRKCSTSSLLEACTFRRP

This experiment has as its target human transferrin (human, UniProt P02787 20-698). In words: SPR (BIAcore T200, CM5 chip); transferrin immobilised by amine coupling, sdAb injected. (In SPR one partner is held on a chip, and binding of the other changes the refractive index at the surface.)

No constants are given. Whether binding was seen depends on the method and setting. Some binding calls cover weakened binding; strength is not graded here.

B1: AS01299VH3a-L47 (VHH)
VHH: EVQLVESGGGLVQPGGSLRLSCAASGSIFSIATMAWYRQAPGKGLEWVAGITRSGSTNYRDSVKGRFTISRDNSKNTMYLQMNSLRAEDTAVYYCTDYSSRYYHDYWGQGTLVTVSS
notes: Humanized variant of AS01299, C-terminal 6xHis tag; also called AS01299VH3a-L47-2
Take B1: the binding result is given as “binds”.

B2: AS01299VH4-L47 (VHH)
VHH: EVQLVESGGGLVQPGGSLRLSCAASGSIFSIATMAWYRQAPGKGLEWVSGITRSGSTNYRDSVKGRFTISRDNSKNTLYLQMNSLRAEDTAVYYCTDYSSRYYHDYWGQGTLVTVSS
notes: Humanized variant of AS01299, C-terminal 6xHis tag; also called AS01299VH4-L47-2
Consider B2, for which the binding entry was “binds”.
